The source of these data is the supplement of paper PMC12067093, “Discovery and optimisation of a covalent ligand for TRIM25 and its application to targeted protein ubiquitination” (Chemical Science, 2025).

Protein sequences, listed by entry. Tags and fused reporters are not part of them. Lines headed by an entry give the natural chain unless they say otherwise; changes in a name come on top.
UniProt Q9C037: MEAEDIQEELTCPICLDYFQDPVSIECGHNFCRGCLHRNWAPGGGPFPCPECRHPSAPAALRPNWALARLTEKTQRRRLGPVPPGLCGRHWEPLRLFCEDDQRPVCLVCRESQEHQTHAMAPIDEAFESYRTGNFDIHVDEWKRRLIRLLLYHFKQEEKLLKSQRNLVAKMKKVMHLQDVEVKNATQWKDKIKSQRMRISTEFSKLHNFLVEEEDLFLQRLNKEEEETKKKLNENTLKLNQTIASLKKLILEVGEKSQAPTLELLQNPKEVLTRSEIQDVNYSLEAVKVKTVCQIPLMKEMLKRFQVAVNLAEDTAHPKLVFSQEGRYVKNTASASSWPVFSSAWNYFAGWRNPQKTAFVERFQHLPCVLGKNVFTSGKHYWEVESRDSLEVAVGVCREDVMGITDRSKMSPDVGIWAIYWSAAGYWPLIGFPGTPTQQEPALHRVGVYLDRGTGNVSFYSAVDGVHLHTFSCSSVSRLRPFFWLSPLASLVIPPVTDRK
UniProt Q96PN7: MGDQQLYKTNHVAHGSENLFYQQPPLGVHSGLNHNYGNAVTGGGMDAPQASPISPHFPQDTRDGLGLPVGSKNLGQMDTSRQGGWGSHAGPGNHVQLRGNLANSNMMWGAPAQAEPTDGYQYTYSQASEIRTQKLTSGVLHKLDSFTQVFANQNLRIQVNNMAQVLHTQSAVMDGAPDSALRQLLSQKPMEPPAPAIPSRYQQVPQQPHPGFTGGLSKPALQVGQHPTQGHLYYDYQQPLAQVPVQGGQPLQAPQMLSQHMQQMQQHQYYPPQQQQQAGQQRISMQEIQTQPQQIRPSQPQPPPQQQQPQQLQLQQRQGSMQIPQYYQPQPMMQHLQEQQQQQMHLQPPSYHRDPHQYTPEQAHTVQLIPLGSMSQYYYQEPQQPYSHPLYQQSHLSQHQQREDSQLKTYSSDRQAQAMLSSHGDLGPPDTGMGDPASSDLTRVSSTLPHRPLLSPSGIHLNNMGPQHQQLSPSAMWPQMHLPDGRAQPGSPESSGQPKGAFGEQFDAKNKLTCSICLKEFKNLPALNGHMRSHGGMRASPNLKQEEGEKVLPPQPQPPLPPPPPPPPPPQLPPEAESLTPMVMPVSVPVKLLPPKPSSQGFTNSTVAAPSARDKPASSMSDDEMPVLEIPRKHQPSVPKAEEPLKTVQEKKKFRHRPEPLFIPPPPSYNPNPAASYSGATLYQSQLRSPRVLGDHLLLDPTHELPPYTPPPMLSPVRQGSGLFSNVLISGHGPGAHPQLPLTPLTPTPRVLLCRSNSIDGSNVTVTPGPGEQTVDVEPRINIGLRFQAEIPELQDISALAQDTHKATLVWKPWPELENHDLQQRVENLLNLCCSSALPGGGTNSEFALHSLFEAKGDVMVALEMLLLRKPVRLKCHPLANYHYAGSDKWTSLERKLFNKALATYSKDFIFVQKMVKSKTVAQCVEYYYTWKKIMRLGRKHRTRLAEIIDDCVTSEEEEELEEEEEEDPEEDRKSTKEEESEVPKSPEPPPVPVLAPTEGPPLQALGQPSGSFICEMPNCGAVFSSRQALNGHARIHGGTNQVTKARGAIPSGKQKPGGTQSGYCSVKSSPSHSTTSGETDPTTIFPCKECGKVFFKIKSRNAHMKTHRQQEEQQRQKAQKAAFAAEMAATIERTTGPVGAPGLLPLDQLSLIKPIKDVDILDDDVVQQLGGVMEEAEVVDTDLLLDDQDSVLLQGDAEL
UniProt Q13114: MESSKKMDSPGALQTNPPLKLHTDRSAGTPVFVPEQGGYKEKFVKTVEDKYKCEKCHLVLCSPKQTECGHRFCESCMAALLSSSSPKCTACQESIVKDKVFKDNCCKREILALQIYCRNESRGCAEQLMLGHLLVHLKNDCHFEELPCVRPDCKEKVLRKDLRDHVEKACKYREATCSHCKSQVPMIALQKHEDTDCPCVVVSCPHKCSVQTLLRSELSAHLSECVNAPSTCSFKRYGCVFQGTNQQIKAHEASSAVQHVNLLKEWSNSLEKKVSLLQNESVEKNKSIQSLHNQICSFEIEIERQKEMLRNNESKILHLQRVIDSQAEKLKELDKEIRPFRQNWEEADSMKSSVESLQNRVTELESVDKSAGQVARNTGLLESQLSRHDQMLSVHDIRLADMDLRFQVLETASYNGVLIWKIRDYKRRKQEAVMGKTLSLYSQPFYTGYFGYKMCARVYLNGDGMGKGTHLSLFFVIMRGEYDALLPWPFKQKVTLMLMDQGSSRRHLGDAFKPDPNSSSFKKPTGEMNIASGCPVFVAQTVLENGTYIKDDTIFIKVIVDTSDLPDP
UniProt Q15650: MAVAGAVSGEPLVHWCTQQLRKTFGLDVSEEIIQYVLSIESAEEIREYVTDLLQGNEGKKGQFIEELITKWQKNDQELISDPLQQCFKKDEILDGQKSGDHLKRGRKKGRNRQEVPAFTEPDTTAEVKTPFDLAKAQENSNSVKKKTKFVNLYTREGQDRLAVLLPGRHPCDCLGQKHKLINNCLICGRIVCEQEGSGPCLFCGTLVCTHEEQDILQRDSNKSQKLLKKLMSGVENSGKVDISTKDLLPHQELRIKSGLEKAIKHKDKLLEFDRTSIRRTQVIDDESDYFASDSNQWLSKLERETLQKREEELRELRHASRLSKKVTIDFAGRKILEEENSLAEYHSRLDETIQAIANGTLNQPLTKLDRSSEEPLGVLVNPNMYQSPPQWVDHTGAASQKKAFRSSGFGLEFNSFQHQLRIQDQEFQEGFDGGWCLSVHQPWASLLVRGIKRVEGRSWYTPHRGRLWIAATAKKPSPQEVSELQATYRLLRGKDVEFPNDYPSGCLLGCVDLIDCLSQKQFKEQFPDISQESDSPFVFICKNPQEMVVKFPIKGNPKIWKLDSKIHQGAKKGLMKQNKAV
UniProt P19474, whole entry, looked up: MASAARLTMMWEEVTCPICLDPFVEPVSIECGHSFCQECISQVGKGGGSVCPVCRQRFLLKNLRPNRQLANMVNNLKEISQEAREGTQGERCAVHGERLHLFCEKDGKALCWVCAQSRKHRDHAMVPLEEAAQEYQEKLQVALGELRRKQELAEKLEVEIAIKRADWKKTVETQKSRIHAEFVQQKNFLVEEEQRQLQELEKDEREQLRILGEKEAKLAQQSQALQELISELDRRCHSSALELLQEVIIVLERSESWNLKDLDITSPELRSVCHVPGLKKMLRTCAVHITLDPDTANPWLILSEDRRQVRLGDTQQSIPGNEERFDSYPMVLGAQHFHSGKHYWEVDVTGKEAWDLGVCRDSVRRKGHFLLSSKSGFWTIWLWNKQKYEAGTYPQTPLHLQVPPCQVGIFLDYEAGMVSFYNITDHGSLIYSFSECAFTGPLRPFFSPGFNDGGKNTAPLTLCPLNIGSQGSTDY
UniProt P60174, whole entry, looked up: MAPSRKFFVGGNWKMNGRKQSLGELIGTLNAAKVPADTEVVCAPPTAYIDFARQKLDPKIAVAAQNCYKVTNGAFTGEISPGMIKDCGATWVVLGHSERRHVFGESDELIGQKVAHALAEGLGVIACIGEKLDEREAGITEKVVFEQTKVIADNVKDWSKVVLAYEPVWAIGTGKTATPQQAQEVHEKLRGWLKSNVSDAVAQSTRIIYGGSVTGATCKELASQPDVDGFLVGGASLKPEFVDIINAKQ
UniProt Q7Z2T5: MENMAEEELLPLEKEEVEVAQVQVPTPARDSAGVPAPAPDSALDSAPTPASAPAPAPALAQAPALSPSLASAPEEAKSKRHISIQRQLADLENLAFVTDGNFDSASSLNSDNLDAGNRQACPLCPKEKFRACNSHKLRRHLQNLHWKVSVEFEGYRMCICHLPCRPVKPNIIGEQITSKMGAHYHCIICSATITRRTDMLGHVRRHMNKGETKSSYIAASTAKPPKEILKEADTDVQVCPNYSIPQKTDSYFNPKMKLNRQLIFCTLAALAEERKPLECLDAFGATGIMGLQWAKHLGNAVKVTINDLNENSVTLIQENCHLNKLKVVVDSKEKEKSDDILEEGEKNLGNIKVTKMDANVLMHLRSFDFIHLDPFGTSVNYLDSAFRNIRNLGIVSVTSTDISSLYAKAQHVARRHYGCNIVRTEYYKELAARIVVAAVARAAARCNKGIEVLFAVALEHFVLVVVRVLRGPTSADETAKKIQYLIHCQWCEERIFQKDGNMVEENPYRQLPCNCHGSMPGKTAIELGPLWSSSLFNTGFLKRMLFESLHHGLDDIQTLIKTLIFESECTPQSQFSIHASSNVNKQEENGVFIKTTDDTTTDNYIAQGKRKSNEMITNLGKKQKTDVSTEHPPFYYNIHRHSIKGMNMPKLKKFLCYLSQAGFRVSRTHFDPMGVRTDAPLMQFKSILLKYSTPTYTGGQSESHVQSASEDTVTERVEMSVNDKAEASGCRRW
UniProt O14545: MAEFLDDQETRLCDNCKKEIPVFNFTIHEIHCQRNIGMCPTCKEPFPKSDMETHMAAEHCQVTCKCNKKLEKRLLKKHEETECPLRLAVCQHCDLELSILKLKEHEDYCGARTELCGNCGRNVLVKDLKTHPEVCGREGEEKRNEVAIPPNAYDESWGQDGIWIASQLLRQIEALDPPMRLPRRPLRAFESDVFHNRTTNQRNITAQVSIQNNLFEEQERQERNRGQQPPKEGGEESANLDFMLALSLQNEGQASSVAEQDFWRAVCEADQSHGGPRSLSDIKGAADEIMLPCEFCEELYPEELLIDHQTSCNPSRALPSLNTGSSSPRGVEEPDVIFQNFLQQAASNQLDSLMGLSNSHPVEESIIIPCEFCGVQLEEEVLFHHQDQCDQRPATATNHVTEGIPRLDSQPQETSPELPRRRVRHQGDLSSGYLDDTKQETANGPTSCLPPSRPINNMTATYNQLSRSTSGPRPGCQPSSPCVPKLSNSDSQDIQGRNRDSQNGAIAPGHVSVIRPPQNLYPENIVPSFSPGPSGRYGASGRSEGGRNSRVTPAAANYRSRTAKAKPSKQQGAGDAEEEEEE
UniProt Q86W33: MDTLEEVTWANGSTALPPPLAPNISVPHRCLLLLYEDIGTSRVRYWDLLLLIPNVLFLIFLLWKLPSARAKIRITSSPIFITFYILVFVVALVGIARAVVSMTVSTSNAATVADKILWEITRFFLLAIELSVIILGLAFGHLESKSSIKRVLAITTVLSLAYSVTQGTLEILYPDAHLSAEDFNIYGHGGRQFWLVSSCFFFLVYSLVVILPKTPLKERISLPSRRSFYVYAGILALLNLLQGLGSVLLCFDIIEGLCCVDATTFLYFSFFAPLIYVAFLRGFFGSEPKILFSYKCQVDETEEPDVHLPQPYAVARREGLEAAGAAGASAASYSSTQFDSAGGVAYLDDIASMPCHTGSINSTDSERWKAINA
UniProt Q9C035: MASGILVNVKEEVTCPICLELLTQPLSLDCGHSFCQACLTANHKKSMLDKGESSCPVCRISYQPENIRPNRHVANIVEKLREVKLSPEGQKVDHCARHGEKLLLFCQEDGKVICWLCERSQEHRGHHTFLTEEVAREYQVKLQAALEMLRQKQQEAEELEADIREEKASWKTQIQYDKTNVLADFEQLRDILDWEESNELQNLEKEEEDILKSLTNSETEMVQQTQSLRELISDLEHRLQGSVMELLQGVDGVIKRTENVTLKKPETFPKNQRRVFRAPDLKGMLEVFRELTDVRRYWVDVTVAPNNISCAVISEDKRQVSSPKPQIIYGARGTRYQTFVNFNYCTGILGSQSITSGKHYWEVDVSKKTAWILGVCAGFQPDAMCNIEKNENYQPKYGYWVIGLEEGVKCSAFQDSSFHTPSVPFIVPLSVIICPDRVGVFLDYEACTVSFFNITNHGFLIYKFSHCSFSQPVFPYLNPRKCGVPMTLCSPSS
UniProt Q12933: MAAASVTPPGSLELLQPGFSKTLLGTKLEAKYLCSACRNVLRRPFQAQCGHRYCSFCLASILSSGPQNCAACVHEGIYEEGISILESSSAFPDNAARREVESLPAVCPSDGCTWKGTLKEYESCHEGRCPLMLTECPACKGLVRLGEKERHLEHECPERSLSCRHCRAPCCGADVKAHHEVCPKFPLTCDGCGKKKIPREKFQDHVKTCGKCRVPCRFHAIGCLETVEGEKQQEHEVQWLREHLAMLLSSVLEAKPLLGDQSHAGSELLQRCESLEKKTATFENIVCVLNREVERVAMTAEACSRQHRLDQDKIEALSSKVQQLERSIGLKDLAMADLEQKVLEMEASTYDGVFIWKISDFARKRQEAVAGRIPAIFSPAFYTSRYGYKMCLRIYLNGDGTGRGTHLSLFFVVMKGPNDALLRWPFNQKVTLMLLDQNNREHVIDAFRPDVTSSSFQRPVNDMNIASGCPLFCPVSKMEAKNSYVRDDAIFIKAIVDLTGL
UniProt Q9NSU2: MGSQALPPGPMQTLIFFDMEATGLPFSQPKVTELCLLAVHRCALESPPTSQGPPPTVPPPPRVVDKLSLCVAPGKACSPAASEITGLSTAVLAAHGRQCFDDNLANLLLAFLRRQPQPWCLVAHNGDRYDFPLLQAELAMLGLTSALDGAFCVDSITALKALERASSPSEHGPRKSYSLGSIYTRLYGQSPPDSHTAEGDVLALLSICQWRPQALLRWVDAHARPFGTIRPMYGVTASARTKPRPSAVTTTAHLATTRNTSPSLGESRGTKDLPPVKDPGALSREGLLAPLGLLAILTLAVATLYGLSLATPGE

The other results are listed elsewhere or left out.

Compound in the test: CC1Cc2ccccc2N1C(=O)C1CCCN(C1)C(=O)CCl (mixture of isomers) [TRIM25 ligand 11 (diastereomer mixture)]
The experiment in a line: probe-labelled cysteine peptide fold change vs DMSO (competition) (log2 fold change); higher = less target engagement (more negative = stronger competition). The note with it: THP-1, incubation time: 4 h.
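Note: competitive chemoproteomic profiling in live THP-1 cells with an iodoacetamide desthiobiotin (IA-DTB) probe, comparing probe-labelled peptide intensities in compound-treated cells against DMSO-treated controls.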

Take “TPP2_P29144_787_YEDLAPCITLK (UniProt P29144)”: the “probe-labelled cysteine peptide fold change” value amounted to 0.15 (10 µM) and 0.214 (50 µM).

As for “TRMT112_Q9UI30_33_ICPVEFNPNFVAR (UniProt Q9UI30)”, the “probe-labelled cysteine peptide fold change” value is -0.296 (10 µM) and -0.14 (50 µM).

In the case of “TRIM4_Q9C037_109_LFCEDDQRPVCLVCR (UniProt Q9C037)”, the “probe-labelled cysteine peptide fold change” value is, setting by setting: (10 µM) -0.0186; (50 µM) 0.105.

For “TPP1_O14773_111+122_CHSVITQDFLTCWLSIR (UniProt O14773)”, the “probe-labelled cysteine peptide fold change” value is, setting by setting: (10 µM) 0.138; (50 µM) -0.0762.

For the target “TRERF1_Q96PN7_517_LTCSICLK (UniProt Q96PN7)”, the “probe-labelled cysteine peptide fold change” value runs as follows: (10 µM) 0.0605; (50 µM) 0.138.

“TRAF3_Q13114_61_CHLVLCSPK (UniProt Q13114)”: the “probe-labelled cysteine peptide fold change” value by setting is: (10 µM) -0.129; (50 µM) -0.0811.

For “TRIP4_Q15650_541_EQFPDISQESDSPFVFICK (UniProt Q15650)”, the “probe-labelled cysteine peptide fold change” value is -0.149 (10 µM) and 0.138 (50 µM).

Take “TRIM33_Q9UPN9_145+150_LLPCLHSFCLR (UniProt Q9UPN9)”: the “probe-labelled cysteine peptide fold change” value was -0.0317 (10 µM) and -0.233 (50 µM).

Turning to “TRIM21_P19474_103_LHLFCEK (UniProt P19474)”, the “probe-labelled cysteine peptide fold change” value (10 µM) was 0.0279 and the “probe-labelled cysteine peptide fold change” value (50 µM) was -0.00695.

For “TRIP6_Q15654_339+342_CATCSQPILDR (UniProt Q15654)”, the “probe-labelled cysteine peptide fold change” value is 0.14 (10 µM) and 0.0825 (50 µM).

On to “TPI1_P60174_164_VAHALAEGLGVIACIGEKLDER (UniProt P60174)”, for which the “probe-labelled cysteine peptide fold change” value is, setting by setting: (10 µM) -0.548; (50 µM) -0.3.

For “TRIM25_Q14258_186_TCSPASLSQASADLEATLR (UniProt Q14258)”, the “probe-labelled cysteine peptide fold change” value is -0.0439 (10 µM) and 0.359 (50 µM).

As for “TRIM25_Q14258_110_ASAPSPNAQVACDHCLK (UniProt Q14258)”, the “probe-labelled cysteine peptide fold change” value was -0.0453 (10 µM) and -0.00497 (50 µM).

Turning to “TRMT1L_Q7Z2T5_186+189_MGAHYHCIICSATITR (UniProt Q7Z2T5)”, the “probe-labelled cysteine peptide fold change” value was 0.0515 (10 µM) and 0.117 (50 µM).

Take “TRMT11_Q7Z4G4_161_KPQHVFSVLEDYGLDPNCIPENPHNIYFGR (UniProt Q7Z4G4)”: the “probe-labelled cysteine peptide fold change” value by setting is: (10 µM) 0.0156; (50 µM) 0.0188.

For the target “TRAFD1_O14545_135_THPEVCGR (UniProt O14545)”, the “probe-labelled cysteine peptide fold change” value (10 µM) is -0.0543 and the “probe-labelled cysteine peptide fold change” value (50 µM) is -0.0761.

Take “TPRA1_Q86W33_296_CQVDETEEPDVHLPQPYAVAR (UniProt Q86W33)”: the “probe-labelled cysteine peptide fold change” value (10 µM) was -0.128 and the “probe-labelled cysteine peptide fold change” value (50 µM) is -0.0324.

“TRIOBP_Q9H2D6_2233_CQQEGQELLR (UniProt Q9H2D6)”: the “probe-labelled cysteine peptide fold change” value runs as follows: (10 µM) -0.022; (50 µM) 0.0303.

On to “TRAFD1_O14545_64_SDMETHMAAEHCQVTCK (UniProt O14545)”, for which the “probe-labelled cysteine peptide fold change” value reads like this: (10 µM) -0.0604; (50 µM) -0.132.

As for TRIM5_Q9C035_95_VDHCAR (UniProt Q9C035), the “probe-labelled cysteine peptide fold change” value reads like this: (10 µM) -0.0308; (50 µM) -0.00128.

Consider “TPRN_Q4KMQ1_399_SPLEVEAQWAVEEGACPR (UniProt Q4KMQ1)”, for which the “probe-labelled cysteine peptide fold change” value by setting is: (10 µM) -0.211; (50 µM) -0.344.

For “TRMT10C_Q7L0Y3_246_RNVDPFHIYFCNLK (UniProt Q7L0Y3)”, the “probe-labelled cysteine peptide fold change” value came to 0.0633 (10 µM) and 0.195 (50 µM).

For the target “TRIM25_Q14258_122_TCLVCMASFCQEHLQPHFDSPAFQDHPLQPPVR (UniProt Q14258)”, the “probe-labelled cysteine peptide fold change” value runs as follows: (10 µM) -0.105; (50 µM) -0.107.

For “TRIP4_Q15650_171+173_LAVLLPGRHPCDCLGQK (UniProt Q15650)”, the “probe-labelled cysteine peptide fold change” value was -0.116 (10 µM) and -0.0952 (50 µM).

Turning to “TRMT1L_Q7Z2T5_164_MCICHLPCRPVKPNIIGEQITSK (UniProt Q7Z2T5)”, the “probe-labelled cysteine peptide fold change” value is, setting by setting: (10 µM) 0.143; (50 µM) 0.239.

Take “TPRA1_Q86W33_30_CLLLLYEDIGTSR (UniProt Q86W33)”: the “probe-labelled cysteine peptide fold change” value is -0.144 (10 µM) and -0.0162 (50 µM).

With “TRAPPC9_Q96Q05_904_QCHLLLDVFNSTEHELTVSTR (UniProt Q96Q05)”, the “probe-labelled cysteine peptide fold change” value is, setting by setting: (10 µM) 0.218; (50 µM) 0.122.

On to “TRAPPC8_Q9Y2L5_1330+1341_SLCLVPVTLLLSNCSK (UniProt Q9Y2L5)”, for which the “probe-labelled cysteine peptide fold change” value by setting is: (10 µM) -0.297; (50 µM) -0.276.

Take “TRIM21_P19474_54_GGGSVCPVCR (UniProt P19474)”: the “probe-labelled cysteine peptide fold change” value reads like this: (10 µM) -0.0581; (50 µM) 0.0928.

For “TRIM56_Q9BRZ2_202_LDPHLDHPCLPLAEAVR (UniProt Q9BRZ2)”, the “probe-labelled cysteine peptide fold change” value reads like this: (10 µM) 0.0485; (50 µM) 0.0817.

In the case of “TRAF2_Q12933_156_HLEHECPER (UniProt Q12933)”, the “probe-labelled cysteine peptide fold change” value runs as follows: (10 µM) -0.0319; (50 µM) -0.0133.

Turning to “TRIM28_Q13263_713+717_VLLALFCHEPCRPLHQLATDSTFSLDQPGGTLDLTLIR (UniProt Q13263)”, the “probe-labelled cysteine peptide fold change” value is, setting by setting: (10 µM) -0.0638; (50 µM) -0.232.

“TREX1_Q9NSU2_77_ACSPAASEITGLSTAVLAAHGR (UniProt Q9NSU2)”: the “probe-labelled cysteine peptide fold change” value is, setting by setting: (10 µM) 0.216; (50 µM) 0.117.
